Data as given in PubChem BioAssay AID504791 (Drosophila RNAi Screening Center, 2011)

Purpose: 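Factors in Argonaute-based small RNA production and activity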 (primary screen)
System: Drosophila S2-derived reporter cells
Knock-down reagent: long dsRNA against Drosophila genes, about 150-250 ng dsRNA per well (siRNA assay); about 80-120 ng (miRNA assay)
Time to read-out: about 5 days (siRNA assay); about 4 days (miRNA assay)
Challenge: copper sulfate induction of reporters: 25 µM (siRNA assay); 200 mM stated (miRNA assay), 1-2 days before reading
Detection: 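Per-well ratio of Renilla over firefly light, expressed relative to that plate's average ratio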
Scale: siRNA reporter hit score: higher = 3 marks a strong hit with raised ratio; -3 a strong hit with lowered ratio
Rule for the call: 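a well was a first-pass pick when its plate-scaled ratio rose above 1.5 (siRNA assay) or 1.6 (miRNA assay), or dropped below 0.6; a gene counted only if two separate dsRNAs agreed on retest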
The screen tested about 23,000 reagents; below is a random part of those that have a named target and a result. Over the whole deposit, 199 (0.86%) were called active. 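Plate-scaled ratios behind the calls are not deposited; printed light signals are raw; many rows marked increased or decreased are still called inactive.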 Names joined by + are all predicted targets of the reagent. Not all columns of the deposit are shown.

Target gene	amplicon	siRNA reporter hit score	stable siRNA reporter change	miRNA reporter change	stable assay Renilla, run 1 (luminescence)	Outcome
Nadk1a (GeneID 36506)	DRSC05431				5064	inactive
Nadk1a (GeneID 36506)	DRSC06963				7034	inactive
Gpdh3 (GeneID 42624)	DRSC13561				4631	inactive
Gpdh3 (GeneID 42624)	DRSC15325				6462	inactive
CG34047 (retired record) (GeneID 3885666)	DRSC07857				6036	inactive
CG34047 (retired record) (GeneID 3885666)	DRSC21689				8684	inactive
CG13681 (retired record) (GeneID 38892)	DRSC08906				4944	inactive
CG13681 (retired record) (GeneID 38892)	DRSC08907				4796	inactive
CG13681 (retired record) (GeneID 38892)	DRSC10038				6283	inactive
CG13681 (retired record) (GeneID 38892)	DRSC10039				5560	inactive
CG13681 (retired record) (GeneID 38892)	DRSC10927				6115	inactive
CG13681 (retired record) (GeneID 38892)	DRSC10929				8416	inactive
CG18628 (GeneID 39205)	DRSC10328				8455	inactive
CG10462 (GeneID 35260)	DRSC02058				1.96e5	inactive
CG13046 (GeneID 39791)	DRSC09927				7214	inactive
ZAP3 (GeneID 31942)	DRSC17852				7827	inactive
ZAP3 (GeneID 31942)	DRSC17853				5236	inactive
ZAP3 (GeneID 31942)	DRSC18249				4864	inactive
Pldn (GeneID 39315)	DRSC10137				7419	inactive
CG10341 (GeneID 35125)	DRSC02040				67337	inactive
pn (GeneID 31194)	DRSC18822				10041	inactive
Cpr67B (GeneID 39081)	DRSC10373				7718	inactive
Kpc2 (GeneID 37261)	DRSC07635				5012	inactive
CG30413 (GeneID 246601)	DRSC04001				5403	inactive
CG31988 (GeneID 326182)	DRSC22491				3075	inactive
CG11018 (GeneID 37259)	DRSC06024				8447	inactive
Wdr82 (GeneID 34153)	DRSC02595			reporter ratio raised past the hit cutoff	12103	inactive
Wdr82 (GeneID 34153)	DRSC21723			reporter ratio raised past the hit cutoff	10965	active
CG5466 (GeneID 42444)	DRSC15808		reporter ratio raised past the hit cutoff		5743	inactive
CG5466 (GeneID 42444)	DRSC23002				2827	inactive
CG11693 (GeneID 40984)	DRSC14353				7570	inactive
CG4945 (GeneID 36850)	DRSC06904				8930	inactive
CG12926 (GeneID 35996)	DRSC06239				4483	inactive
CG12926 (GeneID 35996)	DRSC21930				10732	inactive
Nepl5 (GeneID 33892)	DRSC03241				1.01e5	inactive
mad2 (GeneID 38656)	DRSC10274				6704	inactive
Hers + amn	DRSC20306				6171	inactive
Gr58c (GeneID 37501)	DRSC04136				5887	inactive
Impbeta11 (GeneID 36732)	DRSC07525				7144	inactive
Acp53C14c (GeneID 3346203)	DRSC05626				6192	inactive
CG12511 (GeneID 33797)	DRSC02171				8455	inactive
CG42580 (GeneID 8673961)	DRSC20397				4239	inactive
blanks (GeneID 38620)	DRSC09757		reporter ratio raised past the hit cutoff		13301	active
CG8483 (GeneID 41623)	DRSC16430				8293	inactive
Kua (GeneID 35300)	DRSC02100				6911	inactive
CG34284 (GeneID 5740234)	DRSC14773				7267	inactive
Mms19 (GeneID 40626)	DRSC12188				9408	inactive
CG15824 (GeneID 33272)	DRSC00473				7776	inactive
prtp (GeneID 32124)	DRSC19804				3696	inactive
prtp (GeneID 32124)	DRSC22494				2859	inactive
byn (GeneID 39349)	DRSC11332				6198	inactive
Muc68E (GeneID 2768990)	DRSC09146				4163	inactive
Mtp (GeneID 35362)	DRSC03216				11621	inactive
CG30432 (GeneID 246611)	DRSC04833				5288	inactive

A run of entries from the list above, for reference:
Target gene	amplicon	siRNA reporter hit score	stable siRNA reporter change	miRNA reporter change	stable assay Renilla, run 1 (luminescence)	Outcome
CG11018 (GeneID 37259)	DRSC06024				8447	inactive
Wdr82 (GeneID 34153)	DRSC02595			reporter ratio raised past the hit cutoff	12103	inactive
Wdr82 (GeneID 34153)	DRSC21723			reporter ratio raised past the hit cutoff	10965	active
CG5466 (GeneID 42444)	DRSC15808		reporter ratio raised past the hit cutoff		5743	inactive
CG5466 (GeneID 42444)	DRSC23002				2827	inactive
CG11693 (GeneID 40984)	DRSC14353				7570	inactive
CG4945 (GeneID 36850)	DRSC06904				8930	inactive
CG12926 (GeneID 35996)	DRSC06239				4483	inactive
CG12926 (GeneID 35996)	DRSC21930				10732	inactive
Nepl5 (GeneID 33892)	DRSC03241				1.01e5	inactive

Next records:
Target gene	amplicon	siRNA reporter hit score	stable siRNA reporter change	miRNA reporter change	stable assay Renilla, run 1 (luminescence)	Outcome
CG16965 (GeneID 34607)	DRSC02547				8150	inactive
Tlk (GeneID 318206)	DRSC17731		reporter ratio lowered past the hit cutoff	reporter ratio lowered past the hit cutoff	3227	inactive
Tlk (GeneID 318206)	DRSC17835				4187	inactive
Tlk (GeneID 318206)	DRSC22924				3448	inactive
Tlk (GeneID 318206)	DRSC22926			reporter ratio lowered past the hit cutoff	3136	active
Tlk (GeneID 318206)	DRSC22938				4140	inactive
Tlk (GeneID 318206)	DRSC23163				1320	inactive
lambdaTry (GeneID 36214)	DRSC06137				6331	inactive
dpr9 (GeneID 2768670)	DRSC14534				9101	inactive
dpr9 (GeneID 2768670)	DRSC14985				7534	inactive
dpr9 (GeneID 2768670)	DRSC14986				7100	inactive
spag (GeneID 43958)	DRSC04717				6198	inactive
CG32006 (GeneID 317817)	DRSC21768				10148	inactive
Prosbeta6 (GeneID 39855)	DRSC11256	-3	reporter ratio raised past the hit cutoff		11645	active
Taf2 (GeneID 39164)	DRSC11298				6762	inactive
Nct (GeneID 42964)	DRSC16172				11364	inactive
mtrm (GeneID 38958)	DRSC10322				5878	inactive
mtrm (GeneID 38958)	DRSC23076				5187	inactive
CG32488 (GeneID 326220)	DRSC08549				6155	inactive
CG32488 (GeneID 326220)	DRSC21537				9746	inactive
Vha26 (GeneID 40679)	DRSC12371				8759	inactive
mRpS7 (GeneID 34412)	DRSC02814				7123	inactive
Nf-YB (GeneID 35261)	DRSC02057				6759	inactive
alpha-Cat (GeneID 40517)	DRSC11917				5388	inactive
CG1999 (GeneID 31671)	DRSC18199		reporter ratio lowered past the hit cutoff		3332	inactive
p38a (GeneID 42866)	DRSC16743				6236	inactive
Wdr37 (GeneID 42218)	DRSC14500				9446	inactive
Adat1 (GeneID 34787)	DRSC03479				7315	inactive
CG18420 (GeneID 2768924)	DRSC01954				7599	inactive
